Results published in PubChem BioAssay (EPA / NIEHS).
The shares of active, inactive and inconclusive entries below differ from those in the screen. For some of these results: Potencies of inconclusive entries are doubtful fits and often do not repeat. Calls of active or inactive are those of the source. Rule for the calls: active = hit-call score of the fitted dose curve at least 0.9, where 1 is the maximum; inconclusive = response in the unintended direction; inactive = score below 0.9.

Chains of the proteins cited; added tags and fusions are not shown. Lines headed by an entry give the natural chain unless they say otherwise; changes in a name come on top.
UniProt P29350: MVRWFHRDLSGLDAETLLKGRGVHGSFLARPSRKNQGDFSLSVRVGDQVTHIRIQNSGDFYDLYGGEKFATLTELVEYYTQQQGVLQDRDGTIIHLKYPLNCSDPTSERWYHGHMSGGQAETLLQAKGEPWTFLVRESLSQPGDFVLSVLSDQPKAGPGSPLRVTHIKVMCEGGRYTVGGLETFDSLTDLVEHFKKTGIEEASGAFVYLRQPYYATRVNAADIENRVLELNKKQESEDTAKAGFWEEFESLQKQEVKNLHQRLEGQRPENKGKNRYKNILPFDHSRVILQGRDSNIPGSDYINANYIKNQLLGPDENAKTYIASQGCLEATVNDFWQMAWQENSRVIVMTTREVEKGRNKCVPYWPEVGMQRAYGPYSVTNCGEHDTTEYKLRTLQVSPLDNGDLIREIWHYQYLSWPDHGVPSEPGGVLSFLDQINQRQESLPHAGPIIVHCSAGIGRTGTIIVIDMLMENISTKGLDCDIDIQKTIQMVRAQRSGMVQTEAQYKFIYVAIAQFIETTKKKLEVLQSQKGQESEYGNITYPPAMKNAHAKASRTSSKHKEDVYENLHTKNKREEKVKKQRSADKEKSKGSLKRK
UniProt P43378: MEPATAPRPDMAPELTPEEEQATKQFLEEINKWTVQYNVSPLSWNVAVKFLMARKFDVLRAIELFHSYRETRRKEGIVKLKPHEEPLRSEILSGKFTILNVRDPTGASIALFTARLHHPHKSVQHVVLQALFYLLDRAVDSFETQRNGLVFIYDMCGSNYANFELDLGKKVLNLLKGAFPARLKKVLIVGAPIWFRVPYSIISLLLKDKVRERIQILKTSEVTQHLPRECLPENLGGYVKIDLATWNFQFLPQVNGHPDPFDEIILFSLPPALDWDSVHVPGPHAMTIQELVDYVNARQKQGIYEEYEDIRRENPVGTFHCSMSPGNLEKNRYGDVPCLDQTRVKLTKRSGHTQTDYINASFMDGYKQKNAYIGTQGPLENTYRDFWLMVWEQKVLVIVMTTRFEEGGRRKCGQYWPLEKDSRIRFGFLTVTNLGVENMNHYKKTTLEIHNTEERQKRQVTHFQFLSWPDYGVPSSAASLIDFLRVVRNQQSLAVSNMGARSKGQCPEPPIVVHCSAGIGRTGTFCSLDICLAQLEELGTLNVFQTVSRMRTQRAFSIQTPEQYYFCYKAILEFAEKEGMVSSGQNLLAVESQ
UniProt P23467: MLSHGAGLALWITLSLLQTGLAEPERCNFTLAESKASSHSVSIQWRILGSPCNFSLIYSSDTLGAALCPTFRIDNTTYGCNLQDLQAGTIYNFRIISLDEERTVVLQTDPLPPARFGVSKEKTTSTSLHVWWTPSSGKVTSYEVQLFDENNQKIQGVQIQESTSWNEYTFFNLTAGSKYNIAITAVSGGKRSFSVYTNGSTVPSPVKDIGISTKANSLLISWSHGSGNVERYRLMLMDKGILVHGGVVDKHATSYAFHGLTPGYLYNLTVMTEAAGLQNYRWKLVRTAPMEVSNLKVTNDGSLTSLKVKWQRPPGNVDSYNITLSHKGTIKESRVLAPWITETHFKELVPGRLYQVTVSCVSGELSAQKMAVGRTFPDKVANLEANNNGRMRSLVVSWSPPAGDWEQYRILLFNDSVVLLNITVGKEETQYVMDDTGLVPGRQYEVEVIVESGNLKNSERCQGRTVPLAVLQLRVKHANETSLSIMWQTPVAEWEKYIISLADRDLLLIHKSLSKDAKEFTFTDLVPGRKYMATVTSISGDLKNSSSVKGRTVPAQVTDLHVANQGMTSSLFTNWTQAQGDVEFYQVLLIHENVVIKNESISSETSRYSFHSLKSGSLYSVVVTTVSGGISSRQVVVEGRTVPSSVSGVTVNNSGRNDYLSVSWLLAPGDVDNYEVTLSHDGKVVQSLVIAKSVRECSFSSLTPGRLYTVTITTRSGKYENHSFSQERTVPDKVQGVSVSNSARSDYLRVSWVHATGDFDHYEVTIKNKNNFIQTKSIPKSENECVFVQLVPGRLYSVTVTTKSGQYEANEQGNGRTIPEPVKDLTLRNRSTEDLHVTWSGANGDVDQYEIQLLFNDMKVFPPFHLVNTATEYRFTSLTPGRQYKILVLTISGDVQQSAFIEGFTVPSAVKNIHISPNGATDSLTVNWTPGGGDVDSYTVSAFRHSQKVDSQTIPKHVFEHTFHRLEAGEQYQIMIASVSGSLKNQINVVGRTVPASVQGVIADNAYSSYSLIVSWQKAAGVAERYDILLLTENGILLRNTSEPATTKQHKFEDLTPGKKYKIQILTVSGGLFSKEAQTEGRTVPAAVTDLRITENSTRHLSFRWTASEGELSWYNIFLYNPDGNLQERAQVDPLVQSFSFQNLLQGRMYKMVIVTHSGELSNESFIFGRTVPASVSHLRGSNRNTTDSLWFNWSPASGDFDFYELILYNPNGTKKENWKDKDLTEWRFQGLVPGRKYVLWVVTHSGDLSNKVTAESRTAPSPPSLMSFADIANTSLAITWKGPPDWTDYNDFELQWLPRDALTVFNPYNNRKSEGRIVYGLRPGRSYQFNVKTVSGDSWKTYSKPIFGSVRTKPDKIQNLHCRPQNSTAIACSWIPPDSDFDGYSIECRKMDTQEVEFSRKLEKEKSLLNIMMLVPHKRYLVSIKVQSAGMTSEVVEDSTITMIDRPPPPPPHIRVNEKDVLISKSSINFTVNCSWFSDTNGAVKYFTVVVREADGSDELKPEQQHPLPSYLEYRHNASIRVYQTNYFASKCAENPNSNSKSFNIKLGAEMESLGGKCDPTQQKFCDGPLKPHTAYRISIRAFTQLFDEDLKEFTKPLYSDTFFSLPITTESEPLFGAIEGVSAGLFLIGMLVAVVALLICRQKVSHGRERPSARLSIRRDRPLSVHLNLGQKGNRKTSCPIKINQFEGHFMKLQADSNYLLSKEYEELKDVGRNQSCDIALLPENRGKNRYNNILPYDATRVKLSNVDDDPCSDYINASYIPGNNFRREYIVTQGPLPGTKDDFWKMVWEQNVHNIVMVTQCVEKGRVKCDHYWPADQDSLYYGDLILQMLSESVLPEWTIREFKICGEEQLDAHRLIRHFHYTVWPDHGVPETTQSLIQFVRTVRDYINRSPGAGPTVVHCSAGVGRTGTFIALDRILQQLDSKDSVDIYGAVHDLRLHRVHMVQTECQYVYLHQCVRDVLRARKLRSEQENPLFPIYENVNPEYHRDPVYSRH
UniProt P28827, whole entry, looked up: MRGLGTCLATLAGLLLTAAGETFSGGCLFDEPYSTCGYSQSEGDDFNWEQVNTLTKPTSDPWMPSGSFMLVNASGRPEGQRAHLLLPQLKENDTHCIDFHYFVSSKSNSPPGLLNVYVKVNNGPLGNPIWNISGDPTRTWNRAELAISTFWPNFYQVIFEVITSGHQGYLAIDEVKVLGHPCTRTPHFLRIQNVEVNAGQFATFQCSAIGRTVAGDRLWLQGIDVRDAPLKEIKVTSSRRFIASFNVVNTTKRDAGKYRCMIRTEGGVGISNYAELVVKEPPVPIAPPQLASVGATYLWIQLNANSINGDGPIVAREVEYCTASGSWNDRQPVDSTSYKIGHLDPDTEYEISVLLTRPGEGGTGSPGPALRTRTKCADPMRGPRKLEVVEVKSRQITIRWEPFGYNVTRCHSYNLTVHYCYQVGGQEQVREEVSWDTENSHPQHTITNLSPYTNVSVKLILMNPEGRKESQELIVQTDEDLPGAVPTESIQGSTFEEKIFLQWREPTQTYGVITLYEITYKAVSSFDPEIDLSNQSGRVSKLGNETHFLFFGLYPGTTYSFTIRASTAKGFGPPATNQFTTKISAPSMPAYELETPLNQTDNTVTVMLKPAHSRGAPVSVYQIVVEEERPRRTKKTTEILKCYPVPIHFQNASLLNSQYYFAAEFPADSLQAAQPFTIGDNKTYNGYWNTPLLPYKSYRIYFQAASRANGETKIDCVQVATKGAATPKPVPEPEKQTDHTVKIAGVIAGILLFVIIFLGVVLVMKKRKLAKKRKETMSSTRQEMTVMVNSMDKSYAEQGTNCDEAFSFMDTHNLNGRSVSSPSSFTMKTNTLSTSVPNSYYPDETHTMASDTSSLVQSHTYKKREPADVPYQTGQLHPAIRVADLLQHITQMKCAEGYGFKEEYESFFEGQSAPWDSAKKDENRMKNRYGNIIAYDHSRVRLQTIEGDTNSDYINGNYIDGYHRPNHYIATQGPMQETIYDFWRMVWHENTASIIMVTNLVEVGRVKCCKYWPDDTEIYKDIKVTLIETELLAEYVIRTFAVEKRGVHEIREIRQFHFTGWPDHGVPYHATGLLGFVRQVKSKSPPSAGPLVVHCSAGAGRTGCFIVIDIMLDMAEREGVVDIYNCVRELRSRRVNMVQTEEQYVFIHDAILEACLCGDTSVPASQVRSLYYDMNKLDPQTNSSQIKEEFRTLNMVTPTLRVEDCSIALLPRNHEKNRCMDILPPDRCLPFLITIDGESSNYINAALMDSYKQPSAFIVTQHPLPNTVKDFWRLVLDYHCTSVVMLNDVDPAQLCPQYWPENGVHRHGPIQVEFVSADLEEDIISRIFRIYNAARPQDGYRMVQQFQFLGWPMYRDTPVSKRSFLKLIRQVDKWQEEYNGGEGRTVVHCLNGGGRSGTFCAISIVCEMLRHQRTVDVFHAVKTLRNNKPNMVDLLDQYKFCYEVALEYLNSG
UniProt Q8IXJ6: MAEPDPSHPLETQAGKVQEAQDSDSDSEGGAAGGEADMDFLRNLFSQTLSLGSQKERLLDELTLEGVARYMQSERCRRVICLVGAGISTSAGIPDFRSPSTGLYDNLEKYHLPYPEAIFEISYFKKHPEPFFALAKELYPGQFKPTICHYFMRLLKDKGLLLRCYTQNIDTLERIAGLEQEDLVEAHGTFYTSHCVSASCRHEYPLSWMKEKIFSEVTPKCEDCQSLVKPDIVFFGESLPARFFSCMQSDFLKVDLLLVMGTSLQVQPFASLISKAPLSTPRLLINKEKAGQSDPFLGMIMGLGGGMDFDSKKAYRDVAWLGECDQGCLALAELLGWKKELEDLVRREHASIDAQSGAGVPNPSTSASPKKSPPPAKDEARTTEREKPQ
UniProt Q13464: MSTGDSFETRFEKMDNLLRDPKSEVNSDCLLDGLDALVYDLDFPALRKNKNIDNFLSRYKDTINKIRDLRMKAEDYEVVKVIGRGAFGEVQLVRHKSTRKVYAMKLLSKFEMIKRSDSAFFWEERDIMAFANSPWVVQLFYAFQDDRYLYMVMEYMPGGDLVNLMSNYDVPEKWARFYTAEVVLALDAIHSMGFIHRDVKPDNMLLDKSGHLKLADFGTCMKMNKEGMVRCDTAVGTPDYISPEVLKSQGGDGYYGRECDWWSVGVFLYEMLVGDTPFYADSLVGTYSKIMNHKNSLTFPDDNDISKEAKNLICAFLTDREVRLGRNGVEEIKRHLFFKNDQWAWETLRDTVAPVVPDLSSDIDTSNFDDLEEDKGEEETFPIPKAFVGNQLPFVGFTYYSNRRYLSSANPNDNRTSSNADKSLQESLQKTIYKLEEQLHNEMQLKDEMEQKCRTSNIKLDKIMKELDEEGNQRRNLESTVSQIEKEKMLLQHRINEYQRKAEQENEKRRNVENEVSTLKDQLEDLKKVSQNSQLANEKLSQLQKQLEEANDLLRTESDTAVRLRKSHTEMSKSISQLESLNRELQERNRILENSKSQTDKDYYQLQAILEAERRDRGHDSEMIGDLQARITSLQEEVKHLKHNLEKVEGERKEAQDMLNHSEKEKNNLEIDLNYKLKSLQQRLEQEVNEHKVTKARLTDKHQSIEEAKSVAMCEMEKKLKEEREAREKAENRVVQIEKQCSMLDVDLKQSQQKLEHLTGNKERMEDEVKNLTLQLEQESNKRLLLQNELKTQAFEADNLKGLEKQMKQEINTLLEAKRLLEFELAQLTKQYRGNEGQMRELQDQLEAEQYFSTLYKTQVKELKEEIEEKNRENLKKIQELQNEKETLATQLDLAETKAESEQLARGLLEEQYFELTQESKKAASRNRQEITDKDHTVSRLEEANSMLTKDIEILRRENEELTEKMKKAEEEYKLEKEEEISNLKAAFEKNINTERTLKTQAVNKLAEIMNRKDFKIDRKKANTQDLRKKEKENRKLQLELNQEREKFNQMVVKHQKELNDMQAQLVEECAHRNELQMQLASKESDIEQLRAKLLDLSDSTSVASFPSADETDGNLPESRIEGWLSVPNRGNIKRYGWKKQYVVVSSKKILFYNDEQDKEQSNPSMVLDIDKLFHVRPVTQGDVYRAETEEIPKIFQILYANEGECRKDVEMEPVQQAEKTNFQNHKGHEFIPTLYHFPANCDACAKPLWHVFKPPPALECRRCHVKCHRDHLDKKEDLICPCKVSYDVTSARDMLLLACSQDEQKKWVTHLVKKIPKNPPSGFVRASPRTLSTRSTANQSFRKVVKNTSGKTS

Legend:
[1] = molecular target: human Protein Tyrosine Phosphatase Non-receptor Type 6 (PTPN6), PTPN6 (gene 5777) (UniProt P29350); test: NVS_ENZ_hPTPN6: NovaScreen (NVS) Enzymatic Assay for human Protein Tyrosine Phosphatase Non-receptor Type 6 (PTPN6) (AID 2283210)
Method in brief: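 Cell-free assay with recombinant PTPN6 expressed in SF9 cells, fluorescent substrate, product separated from substrate by electrophoretic mobility shift; read 1.33 hours after dosing. Primary screen in duplicate at 25 uM, actives retested in concentration series; DMSO baseline.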

[2] = molecular target: human Protein Tyrosine Phosphatase Non-receptor Type 9 (PTPN9), PTPN9 (gene 5780) (UniProt P43378); test: NVS_ENZ_hPTPN9: NovaScreen (NVS) Enzymatic Assay for human Protein Tyrosine Phosphatase Non-receptor Type 9 (PTPN9) (AID 2283209)
Method in brief: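 Sf9-expressed enzyme in a cell-free assay, fluorescence read 1.33 h after dosing with mobility-shift separation of substrate and product. Tested at 25 uM in duplicate, then up to 50 uM; signal loss versus DMSO.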

[3] = molecular target: human Protein Tyrosine Phosphatase Receptor Type B (PTPRB), PTPRB (gene 5787) (UniProt P23467); test: NVS_ENZ_hPTPRB: NovaScreen (NVS) Enzymatic Assay for human Protein Tyrosine Phosphatase Receptor Type B (PTPRB) (AID 2283211)
Method in brief: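 Recombinant human PTPRB with a fluorescent substrate, product separated by electrophoretic mobility shift; read 1 h after dosing. Primary screen in duplicate at 25 uM; actives then retested in concentration series; loss of signal versus DMSO.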

[4] = molecular target: human Protein Tyrosine Phosphatase Receptor Type M (PTPRM), PTPRM (gene 5797) (UniProt P28827); test: NVS_ENZ_hPTPRM: NovaScreen (NVS) Enzymatic Assay for human Protein Tyrosine Phosphatase Receptor Type M (PTPRM) (AID 2283215)
Method in brief: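 Cell-free recombinant PTPRM with fluorogenic substrate; product separated from substrate by electrophoretic mobility shift and read by fluorescence, 1.33 h after dosing. Primary screen single concentration (25 uM) in duplicate; actives retested in concentration series; loss of signal versus DMSO.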

[5] = molecular target: human Sirtuin 3 (SIRT3), SIRT3 (gene 23410) (UniProt Q9NTG7); test: NVS_ENZ_hSIRT3: NovaScreen (NVS) Enzymatic Assay for human Sirtuin 3 (SIRT3) (AID 2283222)
Method in brief: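 Cell-free enzyme assay with recombinant protein and fluorescent substrate, product separated by electrophoretic mobility shift; read 1 hour after dosing. Screened in duplicate at 25 uM, then singleton concentration-response up to 50 uM; loss of signal versus DMSO.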

[6] = molecular target: human Protein Tyrosine Phosphatase Receptor Type F (PTPRF), PTPRF (gene 5792) (UniProt P10586); test: NVS_ENZ_hPTPRF: NovaScreen (NVS) Enzymatic Assay for human Protein Tyrosine Phosphatase Receptor Type F (PTPRF) (AID 2283213)
Method in brief: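 Cell-free fluorescence enzyme assay with recombinant protein and substrate; product separated by electrophoretic mobility shift. Read 1 h after dosing, single 25 uM duplicate screen, then concentration-response up to 50 uM; loss of signal vs DMSO.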

[7] = molecular target: human Sirtuin 2 (SIRT2), SIRT2 (gene 22933) (UniProt Q8IXJ6); test: NVS_ENZ_hSIRT2: NovaScreen (NVS) Enzymatic Assay for human Sirtuin 2 (SIRT2) (AID 2283217)
Method in brief: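 Cell-free recombinant human SIRT2, fluorescent substrate with product separated by electrophoretic mobility shift, 1 hr. Screened in duplicate at 25 uM; hits rerun singly in concentration-response up to 50 uM, relative to DMSO.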

[8] = molecular target: human Rho Associated Coiled-coil Containing Protein Kinase 1 (ROCK1), ROCK1 (gene 6093) (UniProt Q13464); test: NVS_ENZ_hROCK1: NovaScreen (NVS) Enzymatic Assay for human Rho Associated Coiled-coil Containing Protein Kinase 1 (ROCK1) (AID 2283214)
Method in brief: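 Cell-free recombinant human ROCK1 activity assay; fluorescent substrate and product separated by electrophoretic mobility shift, read 1 h after dosing. Screened in duplicate at 25 uM; loss of signal versus DMSO baseline scored as inhibition.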

Compound: c1ccc2c(c1)-c1cccc3c1c-2cc1ccccc13
- AC50 [1]: inconclusive: 25 µM

Compound: Oc1ccc2ccccc2c1N=Nc1ccccc1
- AC50 [2]: active: 25 µM

Compound: CCCc1cc(=O)[nH]c(=S)[nH]1
- AC50 [1]: inconclusive: 25 µM

Compound: COC(=O)c1ccc(C(=O)OC)cc1
- AC50 [1]: inconclusive: 0.151 µM

Compound: NC(=O)N1c2ccccc2C=Cc2ccccc21
- outcome [1]: inactive

Compound: O=C(O)c1cccc(C(=O)O)c1
- outcome [1]: inactive

Compound: Cc1ccc(C(C)(C)C)c(O)c1
- AC50 [3]: inconclusive: 25 µM

Compound: O=c1c(O)c(-c2ccc(O)c(O)c2)oc2cc(O)cc(O)c12
- AC50 [1]: inconclusive: 25 µM

Compound: CCCCCCCCOC(=O)c1cc(O)c(O)c(O)c1
- AC50 [1]: inconclusive: 2.01 µM

Compound: N=C(N)c1ccc(OCCCCCOc2ccc(C(=N)N)cc2)cc1
- AC50 [1]: inconclusive: 21.9 µM

Compound: CCCCCOC(=O)COc1cc(N2C(=O)C3=C(CCCC3)C2=O)c(F)cc1Cl
- AC50 [3]: inconclusive: 25 µM

Compound: Cc1ccc(C)c(C)c1
- outcome [1]: inactive

Compound: CCN(CC)CCNc1ccc(CNC=O)c2sc3ccc(OC)cc3c(=O)c12
- AC50 [2]: inconclusive: 14.6 µM
- AC50 [4]: inconclusive: 25 µM
- outcome [5]: inactive

Compound: C=C(C)C(N)=O
- AC50 [1]: inconclusive: 4.96 µM

Compound: NC(=O)NN=Cc1ccc([N+](=O)[O-])o1
- AC50 [1]: active: 10.9 µM

Compound: O=[N+]([O-])C(CO)(CO)CO
- outcome [1]: inactive

Compound: OC(CCl)CCl
- AC50 [1]: inconclusive: 25 µM

Compound: CCc1c(C(=O)NN2CCCCC2)nn(-c2ccc(Cl)cc2Cl)c1-c1ccc(Br)cc1
- outcome [1]: inactive
- outcome [6]: inactive
- AC50 [7]: inconclusive: 4.12 µM

Compound: c1ccc(C(O[C@@H]2CCCN(CCc3ccc4c(c3)OCO4)C2)c2ccccc2)cc1
- AC50 [1]: inconclusive: 17.9 µM

Compound: O=c1[nH]cnc2c1ncn2[C@H]1CC[C@@H](CO)O1
- AC50 [2]: inconclusive: 25 µM
- AC50 [3]: inconclusive: 0.162 µM
- outcome [8]: inactive
- AC50 [7]: inconclusive: 25 µM
- AC50 [5]: inconclusive: 0.0738 µM

Compound: NS(=O)(=O)c1cc2c(cc1Cl)NCNS2(=O)=O
- outcome [2]: inactive
- AC50 [1]: inconclusive: 5.82 µM

Compound: ClC1=C(Cl)C(Cl)(Cl)C(Cl)=C1Cl
- AC50 [1]: inconclusive: 25 µM
